This is one part of the list. The calls rarely recur for the same compound in another form.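 Kinases, fused to nanoluciferase, were expressed in K562 cells; luminescence was measured every 4 h from 2 to 18 h as percent of control (DMSO = 100%, positive control = 0%). A time point is decreased if signal falls significantly (2 sigma). Hits were called by the authors by a rule that is not shown; the count of time points alone does not decide it.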
Assays:
Assay in all cases: kinase-Nluc reporter destabilization hit call (1 = scored as downregulated) (binary); higher = compound decreases kinase abundance
Details in all cases: K562; 2-18 h
IRAK3 = IRAK3 (UniProt Q9Y616)
JAK1 = JAK1 (UniProt P23458)
LCK = LCK (UniProt P06239)
LIMK1 = LIMK1 (UniProt P53667)
LIMK2 = LIMK2 (UniProt P53671)
LMTK2 = LMTK2 (UniProt Q8IWU2)
LYN = LYN (UniProt P07948)
MAP2K1 = MAP2K1 (UniProt Q02750)
MAP2K2 = MAP2K2 (UniProt P36507)
MAP4K2 = MAP4K2 (UniProt Q12851)

By UniProt entry, the sequences of proteins in these tests, tags left out. Where a name states a change or a piece, a line headed by the entry shows the natural chain unless it says otherwise.
UniProt Q9Y616: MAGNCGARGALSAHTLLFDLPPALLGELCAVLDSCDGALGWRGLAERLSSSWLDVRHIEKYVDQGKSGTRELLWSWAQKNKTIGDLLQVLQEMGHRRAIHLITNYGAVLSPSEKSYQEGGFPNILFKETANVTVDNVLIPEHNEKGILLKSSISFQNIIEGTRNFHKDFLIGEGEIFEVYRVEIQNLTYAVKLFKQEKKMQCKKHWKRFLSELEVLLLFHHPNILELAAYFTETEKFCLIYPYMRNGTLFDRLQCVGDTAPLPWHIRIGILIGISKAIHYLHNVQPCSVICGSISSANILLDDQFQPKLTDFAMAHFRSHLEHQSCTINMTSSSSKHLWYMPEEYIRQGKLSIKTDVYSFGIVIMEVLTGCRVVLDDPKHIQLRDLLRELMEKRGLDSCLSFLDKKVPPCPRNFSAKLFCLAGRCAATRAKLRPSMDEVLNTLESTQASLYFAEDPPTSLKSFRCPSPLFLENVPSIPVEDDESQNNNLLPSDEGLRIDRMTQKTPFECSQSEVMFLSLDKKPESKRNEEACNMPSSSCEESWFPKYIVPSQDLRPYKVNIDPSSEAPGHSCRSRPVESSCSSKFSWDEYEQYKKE
UniProt P23458: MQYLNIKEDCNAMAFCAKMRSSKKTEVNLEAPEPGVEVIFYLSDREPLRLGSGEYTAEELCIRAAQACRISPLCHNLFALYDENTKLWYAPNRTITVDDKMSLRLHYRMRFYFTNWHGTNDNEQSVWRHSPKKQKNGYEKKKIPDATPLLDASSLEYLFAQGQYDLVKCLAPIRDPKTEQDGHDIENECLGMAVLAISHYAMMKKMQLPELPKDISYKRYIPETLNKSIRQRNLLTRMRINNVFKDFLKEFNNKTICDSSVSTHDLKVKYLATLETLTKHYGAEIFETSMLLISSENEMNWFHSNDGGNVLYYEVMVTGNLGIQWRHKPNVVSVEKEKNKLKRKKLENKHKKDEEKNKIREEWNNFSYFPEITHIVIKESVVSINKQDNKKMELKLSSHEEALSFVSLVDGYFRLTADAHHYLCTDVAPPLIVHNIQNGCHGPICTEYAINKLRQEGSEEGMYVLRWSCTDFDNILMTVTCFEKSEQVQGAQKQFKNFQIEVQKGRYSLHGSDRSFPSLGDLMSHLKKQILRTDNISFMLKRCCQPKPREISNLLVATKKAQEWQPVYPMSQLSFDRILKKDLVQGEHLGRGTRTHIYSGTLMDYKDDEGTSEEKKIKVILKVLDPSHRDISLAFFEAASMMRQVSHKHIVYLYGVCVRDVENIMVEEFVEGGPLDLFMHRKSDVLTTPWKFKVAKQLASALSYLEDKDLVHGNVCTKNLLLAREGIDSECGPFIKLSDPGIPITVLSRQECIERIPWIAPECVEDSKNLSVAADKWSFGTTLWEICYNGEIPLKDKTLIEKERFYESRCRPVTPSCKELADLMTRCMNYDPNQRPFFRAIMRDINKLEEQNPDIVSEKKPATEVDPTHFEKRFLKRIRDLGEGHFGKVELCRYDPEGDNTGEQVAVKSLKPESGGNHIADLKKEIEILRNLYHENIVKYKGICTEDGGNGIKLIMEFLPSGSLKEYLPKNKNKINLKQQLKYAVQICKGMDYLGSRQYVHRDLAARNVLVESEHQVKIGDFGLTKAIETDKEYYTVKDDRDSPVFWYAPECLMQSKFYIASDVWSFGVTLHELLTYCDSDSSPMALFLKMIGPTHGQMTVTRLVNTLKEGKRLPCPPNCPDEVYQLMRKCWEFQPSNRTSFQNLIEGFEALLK
UniProt P06239: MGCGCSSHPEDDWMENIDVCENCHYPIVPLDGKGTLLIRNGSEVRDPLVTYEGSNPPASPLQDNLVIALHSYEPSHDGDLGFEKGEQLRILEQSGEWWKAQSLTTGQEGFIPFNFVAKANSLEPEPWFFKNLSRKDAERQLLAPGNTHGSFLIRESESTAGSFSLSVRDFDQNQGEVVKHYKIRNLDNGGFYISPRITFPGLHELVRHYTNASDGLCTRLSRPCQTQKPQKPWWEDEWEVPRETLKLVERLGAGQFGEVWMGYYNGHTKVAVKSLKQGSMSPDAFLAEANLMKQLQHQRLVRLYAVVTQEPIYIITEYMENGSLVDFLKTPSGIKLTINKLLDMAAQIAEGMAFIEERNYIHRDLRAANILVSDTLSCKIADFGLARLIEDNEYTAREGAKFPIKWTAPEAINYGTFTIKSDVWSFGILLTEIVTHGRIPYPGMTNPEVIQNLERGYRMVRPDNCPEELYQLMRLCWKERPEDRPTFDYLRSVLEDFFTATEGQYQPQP
UniProt P53667: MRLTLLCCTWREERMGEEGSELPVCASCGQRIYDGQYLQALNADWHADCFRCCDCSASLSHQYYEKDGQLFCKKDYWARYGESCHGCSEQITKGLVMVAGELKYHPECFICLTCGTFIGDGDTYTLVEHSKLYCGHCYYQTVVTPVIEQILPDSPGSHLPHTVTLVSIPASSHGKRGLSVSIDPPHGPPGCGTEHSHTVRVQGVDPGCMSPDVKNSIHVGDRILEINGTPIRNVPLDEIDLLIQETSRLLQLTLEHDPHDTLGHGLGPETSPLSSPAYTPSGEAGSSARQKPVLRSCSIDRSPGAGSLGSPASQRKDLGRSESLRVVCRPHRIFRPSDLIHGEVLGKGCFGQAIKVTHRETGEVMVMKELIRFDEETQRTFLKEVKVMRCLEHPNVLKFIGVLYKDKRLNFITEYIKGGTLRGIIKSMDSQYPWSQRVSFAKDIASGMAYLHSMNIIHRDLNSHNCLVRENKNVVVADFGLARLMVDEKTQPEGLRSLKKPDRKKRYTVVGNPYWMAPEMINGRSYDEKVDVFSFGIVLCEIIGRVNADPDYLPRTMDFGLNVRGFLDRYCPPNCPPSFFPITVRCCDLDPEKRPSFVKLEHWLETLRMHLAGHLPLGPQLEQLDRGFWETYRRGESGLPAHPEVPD
UniProt P53671: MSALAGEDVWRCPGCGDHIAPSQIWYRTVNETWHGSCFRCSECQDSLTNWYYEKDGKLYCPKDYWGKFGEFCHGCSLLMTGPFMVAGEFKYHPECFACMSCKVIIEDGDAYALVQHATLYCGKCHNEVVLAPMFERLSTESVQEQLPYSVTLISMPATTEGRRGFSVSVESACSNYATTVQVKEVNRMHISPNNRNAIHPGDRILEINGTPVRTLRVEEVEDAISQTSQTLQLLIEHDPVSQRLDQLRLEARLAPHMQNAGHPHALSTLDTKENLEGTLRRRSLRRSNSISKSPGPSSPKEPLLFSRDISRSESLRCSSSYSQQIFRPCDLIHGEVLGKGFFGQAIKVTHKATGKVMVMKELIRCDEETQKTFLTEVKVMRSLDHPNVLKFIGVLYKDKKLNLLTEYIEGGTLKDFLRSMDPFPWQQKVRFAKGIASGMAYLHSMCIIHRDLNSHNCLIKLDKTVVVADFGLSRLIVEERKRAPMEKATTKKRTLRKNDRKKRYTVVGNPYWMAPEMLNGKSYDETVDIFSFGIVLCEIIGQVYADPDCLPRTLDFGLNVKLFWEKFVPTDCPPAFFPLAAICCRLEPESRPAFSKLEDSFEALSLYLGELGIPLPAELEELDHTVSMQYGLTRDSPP
UniProt Q8IWU2: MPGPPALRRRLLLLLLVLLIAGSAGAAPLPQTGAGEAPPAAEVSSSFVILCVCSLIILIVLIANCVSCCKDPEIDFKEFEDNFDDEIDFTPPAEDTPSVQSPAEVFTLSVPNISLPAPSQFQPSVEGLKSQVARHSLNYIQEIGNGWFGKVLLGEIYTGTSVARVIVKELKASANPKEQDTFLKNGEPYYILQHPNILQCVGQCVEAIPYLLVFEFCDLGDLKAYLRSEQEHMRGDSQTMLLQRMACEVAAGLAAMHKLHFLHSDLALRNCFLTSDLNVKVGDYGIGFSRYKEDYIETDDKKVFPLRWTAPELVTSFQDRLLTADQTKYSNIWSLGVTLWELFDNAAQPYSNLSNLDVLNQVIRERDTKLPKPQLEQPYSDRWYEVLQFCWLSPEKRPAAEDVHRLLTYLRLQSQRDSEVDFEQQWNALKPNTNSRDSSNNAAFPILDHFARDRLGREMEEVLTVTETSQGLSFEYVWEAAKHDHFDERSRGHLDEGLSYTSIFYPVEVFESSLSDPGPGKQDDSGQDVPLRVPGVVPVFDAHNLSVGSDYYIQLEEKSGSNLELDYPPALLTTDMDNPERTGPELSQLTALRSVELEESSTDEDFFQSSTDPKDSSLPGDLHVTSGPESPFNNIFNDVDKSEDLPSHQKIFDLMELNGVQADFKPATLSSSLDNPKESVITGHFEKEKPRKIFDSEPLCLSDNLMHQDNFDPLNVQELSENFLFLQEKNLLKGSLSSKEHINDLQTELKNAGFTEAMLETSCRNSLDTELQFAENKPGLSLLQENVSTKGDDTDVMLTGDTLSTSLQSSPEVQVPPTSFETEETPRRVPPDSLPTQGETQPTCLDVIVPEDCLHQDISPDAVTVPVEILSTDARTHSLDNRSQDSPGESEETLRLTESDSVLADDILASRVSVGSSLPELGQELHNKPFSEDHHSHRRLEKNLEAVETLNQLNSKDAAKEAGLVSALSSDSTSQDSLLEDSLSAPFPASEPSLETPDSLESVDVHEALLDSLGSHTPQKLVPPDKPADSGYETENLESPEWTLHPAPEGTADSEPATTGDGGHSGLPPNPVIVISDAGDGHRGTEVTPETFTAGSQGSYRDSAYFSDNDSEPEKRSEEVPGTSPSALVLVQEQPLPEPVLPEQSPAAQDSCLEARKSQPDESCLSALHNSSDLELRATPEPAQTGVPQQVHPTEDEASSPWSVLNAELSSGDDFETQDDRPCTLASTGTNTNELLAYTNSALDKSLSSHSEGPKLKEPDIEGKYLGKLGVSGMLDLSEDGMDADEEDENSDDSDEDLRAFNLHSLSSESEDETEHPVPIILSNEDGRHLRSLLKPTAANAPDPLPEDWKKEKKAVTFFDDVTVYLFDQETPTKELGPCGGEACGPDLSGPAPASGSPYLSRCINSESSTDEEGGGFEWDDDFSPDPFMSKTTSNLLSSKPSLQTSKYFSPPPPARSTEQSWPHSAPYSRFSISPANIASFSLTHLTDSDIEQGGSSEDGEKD
UniProt P07948: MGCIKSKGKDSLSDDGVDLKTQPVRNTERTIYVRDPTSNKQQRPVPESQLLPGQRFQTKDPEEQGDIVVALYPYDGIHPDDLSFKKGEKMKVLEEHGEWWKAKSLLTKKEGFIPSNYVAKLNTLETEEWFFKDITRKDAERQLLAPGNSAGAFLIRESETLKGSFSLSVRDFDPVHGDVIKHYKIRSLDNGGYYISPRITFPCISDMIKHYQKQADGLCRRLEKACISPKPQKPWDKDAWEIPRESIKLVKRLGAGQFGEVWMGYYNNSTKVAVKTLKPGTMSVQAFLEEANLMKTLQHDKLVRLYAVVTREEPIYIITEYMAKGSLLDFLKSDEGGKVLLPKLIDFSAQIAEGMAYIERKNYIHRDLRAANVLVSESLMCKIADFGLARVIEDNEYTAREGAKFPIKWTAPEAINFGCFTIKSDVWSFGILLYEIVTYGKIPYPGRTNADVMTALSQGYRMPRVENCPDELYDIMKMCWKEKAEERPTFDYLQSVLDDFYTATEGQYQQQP
UniProt Q12851: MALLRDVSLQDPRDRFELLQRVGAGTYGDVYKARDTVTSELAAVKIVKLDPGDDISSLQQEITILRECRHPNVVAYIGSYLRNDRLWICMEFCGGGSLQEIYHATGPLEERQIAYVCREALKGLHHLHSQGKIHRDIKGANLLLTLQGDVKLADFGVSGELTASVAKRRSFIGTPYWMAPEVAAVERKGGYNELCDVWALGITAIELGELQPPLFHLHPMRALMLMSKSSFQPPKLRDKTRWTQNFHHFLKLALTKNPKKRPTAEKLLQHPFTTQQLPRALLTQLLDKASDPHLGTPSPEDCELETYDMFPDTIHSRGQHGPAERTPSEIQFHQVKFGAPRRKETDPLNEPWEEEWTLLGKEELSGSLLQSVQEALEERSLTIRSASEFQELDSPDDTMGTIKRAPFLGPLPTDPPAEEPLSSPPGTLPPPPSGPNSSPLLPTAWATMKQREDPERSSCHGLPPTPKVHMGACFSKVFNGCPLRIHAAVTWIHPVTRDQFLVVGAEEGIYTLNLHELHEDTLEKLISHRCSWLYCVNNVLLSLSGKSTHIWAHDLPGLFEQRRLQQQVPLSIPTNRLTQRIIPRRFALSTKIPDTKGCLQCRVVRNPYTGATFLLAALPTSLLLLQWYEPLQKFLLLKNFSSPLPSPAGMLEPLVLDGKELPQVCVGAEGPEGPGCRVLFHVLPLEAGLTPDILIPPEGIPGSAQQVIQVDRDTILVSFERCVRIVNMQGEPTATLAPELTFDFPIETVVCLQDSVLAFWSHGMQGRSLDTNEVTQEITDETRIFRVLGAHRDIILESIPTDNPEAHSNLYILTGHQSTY

Measured: kinase-Nluc reporter destabilization hit call

Fc1c(Br)cccc1Nc1ncnc2cc3c(cc12)OCCO3 (2.5 µM)
inactive: IRAK3 = 0 | JAK1 = 0 | LCK 0 | LIMK1 = 0 | LIMK2 = 0 | LMTK2 = 0 | LYN 0 | MAP2K1 = 0 | MAP2K2 = 0 | MAP4K2 = 0

C[C@H]1[C@H](OC(=O)CCC(=O)O)O[C@@H]2O[C@@]3(C)CC[C@H]4[C@H](C)CC[C@@H]1[C@@]24OO3 [Artesunate] (2.5 µM)
inactive: IRAK3 = 0 | JAK1 = 0 | LCK 0 | LIMK1 = 0 | LIMK2 = 0 | LMTK2 = 0 | LYN 0 | MAP2K1 = 0 | MAP2K2 = 0 | MAP4K2 = 0

COc1cc(N2CCC(N(C)C)CC2)ccc1Nc1ncc(Cl)c(Nc2ccccc2P(C)(C)=O)n1 (2.5 µM)
inactive: IRAK3 = 0 | JAK1 = 0 | LCK 0 | LIMK1 = 0 | LIMK2 = 0 | LMTK2 = 0 | LYN 0 | MAP2K1 = 0 | MAP2K2 = 0 | MAP4K2 = 0

CNC(=O)c1ccc(-c2cnc3cnc(-c4ccccc4)cn23)cc1 (10 µM)
inactive: IRAK3 = 0 | JAK1 = 0 | LCK 0 | LIMK1 = 0 | LIMK2 = 0 | LMTK2 = 0 | LYN 0 | MAP2K1 = 0 | MAP2K2 = 0 | MAP4K2 = 0

CCN(C)C(=O)c1ccc2c(C(=Nc3ccc(CN4CCCCC4)cc3)c3ccccc3)c(O)[nH]c2c1 (2.5 µM)
inactive: IRAK3 = 0 | JAK1 = 0 | LCK 0 | LIMK1 = 0 | LIMK2 = 0 | LMTK2 = 0 | LYN 0 | MAP2K1 = 0 | MAP2K2 = 0 | MAP4K2 = 0

2 records drawn at random from those above, as already listed:
CCN(C)C(=O)c1ccc2c(C(=Nc3ccc(CN4CCCCC4)cc3)c3ccccc3)c(O)[nH]c2c1 (2.5 µM)
inactive: IRAK3 = 0 | JAK1 = 0 | LCK 0 | LIMK1 = 0 | LIMK2 = 0 | LMTK2 = 0 | LYN 0 | MAP2K1 = 0 | MAP2K2 = 0 | MAP4K2 = 0

CNC(=O)c1ccc(-c2cnc3cnc(-c4ccccc4)cn23)cc1 (10 µM)
inactive: IRAK3 = 0 | JAK1 = 0 | LCK 0 | LIMK1 = 0 | LIMK2 = 0 | LMTK2 = 0 | LYN 0 | MAP2K1 = 0 | MAP2K2 = 0 | MAP4K2 = 0

(more compounds)

CC(C)c1ccc(CC(=O)N2CCN(c3ccc(C#N)nn3)CC2)cc1 (10 µM)
inactive: IRAK3 = 0 | JAK1 = 0 | LCK 0 | LIMK1 = 0 | LIMK2 = 0 | LMTK2 = 0 | LYN 0 | MAP2K1 = 0 | MAP2K2 = 0 | MAP4K2 = 0

c1ccc(-c2oc3ncnc(NC[C@@H]4CCCO4)c3c2-c2ccccc2)cc1 (2.5 µM)
inactive: IRAK3 = 0 | JAK1 = 0 | LCK 0 | LIMK1 = 0 | LIMK2 = 0 | LMTK2 = 0 | LYN 0 | MAP2K1 = 0 | MAP2K2 = 0 | MAP4K2 = 0

N#C/C(=C(/N)Sc1ccc(N)cc1)c1ccccc1C(F)(F)F (10 µM)
inactive: IRAK3 = 0 | JAK1 = 0 | LCK 0 | LIMK1 = 0 | LIMK2 = 0 | LMTK2 = 0 | LYN 0 | MAP2K1 = 0 | MAP2K2 = 0 | MAP4K2 = 0

CC(C)Oc1ccc(-c2cnc3c(-c4ccnc5ccccc45)cnn3c2)cc1 (10 µM)
inactive: IRAK3 = 0 | JAK1 = 0 | LCK 0 | LIMK1 = 0 | LIMK2 = 0 | LMTK2 = 0 | LYN 0 | MAP2K1 = 0 | MAP2K2 = 0 | MAP4K2 = 0

N#Cc1ccc(-c2c(-c3ncn[nH]3)sc(N3CCOCC3)c2C#N)c(F)c1 (10 µM)
inactive: IRAK3 = 0 | JAK1 = 0 | LCK 0 | LIMK1 = 0 | LIMK2 = 0 | LMTK2 = 0 | LYN 0 | MAP2K1 = 0 | MAP2K2 = 0 | MAP4K2 = 0

CC[C@@H]1[C@H](F)C(=O)N[C@@H]1COc1nccc2cc(C(N)=O)c(OC)cc12 (10 µM)
inactive: IRAK3 = 0 | JAK1 = 0 | LCK 0 | LIMK1 = 0 | LIMK2 = 0 | LMTK2 = 0 | LYN 0 | MAP2K1 = 0 | MAP2K2 = 0 | MAP4K2 = 0

CNC(=O)c1cc(Oc2ccc3nc(N[C@@H]4CCCC[C@H]4O)sc3c2)ccn1 (10 µM)
inactive: IRAK3 = 0 | JAK1 = 0 | LCK 0 | LIMK1 = 0 | LIMK2 = 0 | LMTK2 = 0 | LYN 0 | MAP2K1 = 0 | MAP2K2 = 0 | MAP4K2 = 0

C[C@@H]1COCCN1c1cc(=O)n2c(n1)N(Cc1cncc(Cl)c1)[C@H](C(F)(F)F)CC2 (10 µM)
inactive: IRAK3 = 0 | JAK1 = 0 | LCK 0 | LIMK1 = 0 | LIMK2 = 0 | LMTK2 = 0 | LYN 0 | MAP2K1 = 0 | MAP2K2 = 0 | MAP4K2 = 0

CCC(C)(C)C(=O)N(O)Cc1ccccc1 (10 µM)
inactive: IRAK3 = 0 | JAK1 = 0 | LCK 0 | LIMK1 = 0 | LIMK2 = 0 | LMTK2 = 0 | LYN 0 | MAP2K1 = 0 | MAP2K2 = 0 | MAP4K2 = 0

O=C1NC(=O)C(c2cnc3ccccn23)=C1c1cn2c3c(cc(F)cc13)CN(C(=O)N1CCCCC1)CC2 (2.5 µM)
inactive: IRAK3 = 0 | JAK1 = 0 | LCK 0 | LIMK1 = 0 | LIMK2 = 0 | LMTK2 = 0 | LYN 0 | MAP2K1 = 0 | MAP2K2 = 0 | MAP4K2 = 0

O=C(O)c1ccccc1Nc1cccc(C(F)(F)F)c1 [Flufenamic acid] (10 µM)
inactive: IRAK3 = 0 | JAK1 = 0 | LCK 0 | LIMK1 = 0 | LIMK2 = 0 | LMTK2 = 0 | LYN 0 | MAP2K1 = 0 | MAP2K2 = 0 | MAP4K2 = 0

O=C(c1ccc(Nc2nccc(-c3cc4ccccc4s3)n2)cc1)N1CCC(N2CCCC2)CC1 (2.5 µM)
inactive: IRAK3 = 0 | JAK1 = 0 | LCK 0 | LIMK1 = 0 | LIMK2 = 0 | LMTK2 = 0 | LYN 0 | MAP2K1 = 0 | MAP2K2 = 0 | MAP4K2 = 0

CC(C)c1cnn2c(NCc3ccccc3-n3cccn3)nc(OC3CCCNC3)nc12 (stereo not given) (2.5 µM)
inactive: IRAK3 = 0 | JAK1 = 0 | LCK 0 | LIMK1 = 0 | LIMK2 = 0 | LMTK2 = 0 | LYN 0 | MAP2K1 = 0 | MAP2K2 = 0 | MAP4K2 = 0

COc1cc(C(C)=O)cc(OC)c1O [Acetosyringone] (10 µM)
inactive: IRAK3 = 0 | JAK1 = 0 | LCK 0 | LIMK1 = 0 | LIMK2 = 0 | LMTK2 = 0 | LYN 0 | MAP2K1 = 0 | MAP2K2 = 0 | MAP4K2 = 0

Nc1nc2cc(-c3ccc4ncc(C(=O)N5CCOCC5)n4c3)ccc2o1 [Serabelisib] (10 µM)
inactive: IRAK3 = 0 | JAK1 = 0 | LCK 0 | LIMK1 = 0 | LIMK2 = 0 | LMTK2 = 0 | LYN 0 | MAP2K1 = 0 | MAP2K2 = 0 | MAP4K2 = 0

COc1cnccc1Nc1nc(-c2nn(Cc3c(F)cc(OCCO)cc3F)c3ccccc23)ncc1OC (10 µM)
inactive: IRAK3 = 0 | JAK1 = 0 | LCK 0 | LIMK1 = 0 | LIMK2 = 0 | LMTK2 = 0 | LYN 0 | MAP2K1 = 0 | MAP2K2 = 0 | MAP4K2 = 0

O=c1ccc2ccc(O)c(O)c2o1 [Daphnetin] (10 µM)
inactive: IRAK3 = 0 | JAK1 = 0 | LCK 0 | LIMK1 = 0 | LIMK2 = 0 | LMTK2 = 0 | LYN 0 | MAP2K1 = 0 | MAP2K2 = 0 | MAP4K2 = 0

Cn1cc(-c2ccc3nnc(C(F)(F)c4ccc5ncccc5c4)n3n2)cn1 (10 µM)
inactive: IRAK3 = 0 | JAK1 = 0 | LCK 0 | LIMK1 = 0 | LIMK2 = 0 | LMTK2 = 0 | LYN 0 | MAP2K1 = 0 | MAP2K2 = 0 | MAP4K2 = 0

COc1nc(-c2ccnc(NC(=O)C3CC3)c2)sc1C(N)=O [GSK-3β inhibitor 2] (10 µM)
inactive: IRAK3 = 0 | JAK1 = 0 | LCK 0 | LIMK1 = 0 | LIMK2 = 0 | LMTK2 = 0 | LYN 0 | MAP2K1 = 0 | MAP2K2 = 0 | MAP4K2 = 0

O=C(O)CCc1ccc(NCc2cccc(Oc3ccccc3)c2)cc1 (10 µM)
inactive: IRAK3 = 0 | JAK1 = 0 | LCK 0 | LIMK1 = 0 | LIMK2 = 0 | LMTK2 = 0 | LYN 0 | MAP2K1 = 0 | MAP2K2 = 0 | MAP4K2 = 0

CC1(COc2ccc3c(c2)ncn3-c2ccc3cccc(N4CCC(N)CC4)c3n2)COC1 [Crenolanib] (2.5 µM)
inactive: IRAK3 = 0 | JAK1 = 0 | LCK 0 | LIMK1 = 0 | LIMK2 = 0 | LMTK2 = 0 | LYN 0 | MAP2K1 = 0 | MAP2K2 = 0 | MAP4K2 = 0

O=C1NCCCc2c1oc1ccc(O)cc21 (10 µM)
inactive: IRAK3 = 0 | JAK1 = 0 | LCK 0 | LIMK1 = 0 | LIMK2 = 0 | LMTK2 = 0 | LYN 0 | MAP2K1 = 0 | MAP2K2 = 0 | MAP4K2 = 0

Cc1cc(C(C)Nc2ccccc2)c2nc(N3CCOCC3)cc(=O)n2c1 (stereo not given) (10 µM)
inactive: IRAK3 = 0 | JAK1 = 0 | LCK 0 | LIMK1 = 0 | LIMK2 = 0 | LMTK2 = 0 | LYN 0 | MAP2K1 = 0 | MAP2K2 = 0 | MAP4K2 = 0

Cn1cc(-c2ccc(F)c(C(F)(F)F)c2)nc1C1CCN(c2ncnc3[nH]ncc23)CC1 (10 µM)
inactive: IRAK3 = 0 | JAK1 = 0 | LCK 0 | LIMK1 = 0 | LIMK2 = 0 | LMTK2 = 0 | LYN 0 | MAP2K1 = 0 | MAP2K2 = 0 | MAP4K2 = 0

O=c1ccoc2cc(O)ccc12 [7-Hydroxy-4H-chromen-4-one] (10 µM)
inactive: IRAK3 = 0 | JAK1 = 0 | LCK 0 | LIMK1 = 0 | LIMK2 = 0 | LMTK2 = 0 | LYN 0 | MAP2K1 = 0 | MAP2K2 = 0 | MAP4K2 = 0

Source: the supplement of paper PMC12823440, “Inhibitors supercharge kinase turnover through native proteolytic circuits” (Nature, 2025)
